# Data as given in PubChem BioAssay AID504764 (Drosophila RNAi Screening Center, 2011)
# Aim: 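Genome-wide screen for regulators of Notch-driven gene expression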 (primary screen)
# Cells: Drosophila Kc167 cells
# Reagent: long dsRNA against Drosophila genes
# Duration: about 5 days (4 days dsRNA, then 24 h after transfection)
# Conditions: transfection of constitutively active membrane-tethered Notch lacking the extracellular domain, read 24 h later
# Measurement: 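Firefly luciferase from an E(spl)m3 reporter with active Notch, plus control-promoter and uninduced reporter wells for normalisation; unnormalised counts, duplicate wells a and b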
# Scale: induced reporter light, run 1, well a and induced reporter light, run 1, well b: higher = more light from the Notch target reporter with active Notch; control promoter light, run 1, well a and control promoter light, run 1, well b: higher = more light from the viral control promoter (cell number, transfection, viability); uninduced reporter light, run 1, well a: higher = more light from the Notch target reporter without active Notch
# Rule for the call: 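Wells with low control signal or poorly matching duplicates excluded; duplicates averaged; per source plate, z beyond ±2 for induced/control log2 ratio or beyond ±1.8 for induced/uninduced marks a hit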
# Meaning of the calls: active = modifier hit (raised or lowered Notch signal); inactive = not a hit
# In all, the deposit lists about 22,000 reagents; this is a random part of those with a known target gene and a result. Over the whole deposit, 403 (1.9%) were called active. 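Unnormalised raw counts per well; ratio z-scores behind the hit calls and whether each hit raises or lowers signal are not deposited.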 Reagents against one gene are numbered here. The record does not give: the amount of reagent.
Gene,dsRNA no.,"induced reporter light, run 1, well a","induced reporter light, run 1, well b","control promoter light, run 1, well a","control promoter light, run 1, well b","uninduced reporter light, run 1, well a",Outcome
CG4744,1,1.36e5,1.42e5,1.56e5,1.56e5,12110,inactive
Daao2 (D-amino acid oxidase 2),1,1.45e5,1.40e5,1.55e5,1.61e5,14645,inactive
CG17575,1,73070,89280,1.28e5,90700,7055,inactive
Noc3 (Nucleolar complex protein 3),1,93010,85000,1.05e5,96530,7005,inactive
CG7974,1,1.24e5,1.19e5,1.86e5,2.02e5,10450,inactive
Timp (Tissue inhibitor of metalloproteases),1,1.32e5,1.38e5,1.19e5,93710,12260,inactive
CG46298,1,1.87e5,1.84e5,2.27e5,1.98e5,13745,inactive
CG31259,1,96530,1.04e5,98475,60650,5660,inactive
Arr1 (Arrestin 1),1,1.49e5,1.72e5,1.71e5,1.70e5,13935,inactive
CG9547,1,1.47e5,1.42e5,1.46e5,1.44e5,12170,inactive
CG3600 (retired record),1,92330,89790,1.39e5,1.08e5,8520,inactive
Ahcy (Adenosylhomocysteinase),1,1.47e5,1.40e5,1.72e5,1.46e5,12705,inactive
Grip128,1,1.12e5,1.23e5,1.49e5,1.24e5,11555,inactive
Wdr24 (WD repeat domain 24),1,1.54e5,1.70e5,2.15e5,2.35e5,12560,inactive
CG6959,1,54735,67655,71025,39090,4345,inactive
CG14143,1,1.07e5,1.24e5,1.71e5,1.27e5,5870,inactive
rush (rush hour),1,2.00e5,1.79e5,2.43e5,2.93e5,13485,inactive
PICK1 (Protein interacting with C kinase 1),1,1.57e5,1.60e5,1.77e5,1.76e5,13328,inactive
CG11902,1,1.46e5,1.82e5,1.69e5,2.23e5,13665,inactive
CG9451,1,1.03e5,1.06e5,1.03e5,71620,9255,inactive
CG31100,1,1.24e5,1.16e5,1.13e5,88060,8778,inactive
CG31100,2,76765,69985,61085,55685,4478,inactive
l(2)SH0834 (lethal (2) SH0834),1,96620,98370,59985,78355,12495,inactive
AstA-R2 (Allatostatin A receptor 2),1,1.21e5,1.45e5,1.67e5,1.69e5,13050,inactive
ebd1 (earthbound 1),1,1.13e5,1.07e5,1.43e5,1.52e5,10690,inactive
CG1138,1,90540,83980,80305,68625,6710,inactive
CG13016,1,1.10e5,1.20e5,1.61e5,1.43e5,9650,inactive
SC35 (SR family splicing factor SC35),1,18320,22295,19020,19620,3805,inactive
SC35 (SR family splicing factor SC35),2,1.09e5,1.28e5,1.14e5,1.24e5,9570,inactive
eIF2Balpha (eukaryotic translation initiation factor 2B subunit alpha),1,1.10e5,1.38e5,1.91e5,1.99e5,8788,inactive
CG7083,1,2.12e5,1.63e5,1.36e5,1.66e5,9565,inactive

Records listed so far whose target name starts with E or e:
Gene,dsRNA no.,"induced reporter light, run 1, well a","induced reporter light, run 1, well b","control promoter light, run 1, well a","control promoter light, run 1, well b","uninduced reporter light, run 1, well a",Outcome
ebd1 (earthbound 1),1,1.13e5,1.07e5,1.43e5,1.52e5,10690,inactive
eIF2Balpha (eukaryotic translation initiation factor 2B subunit alpha),1,1.10e5,1.38e5,1.91e5,1.99e5,8788,inactive

Next records follow:
Gene,dsRNA no.,"induced reporter light, run 1, well a","induced reporter light, run 1, well b","control promoter light, run 1, well a","control promoter light, run 1, well b","uninduced reporter light, run 1, well a",Outcome
"AP-1sigma (Adaptor Protein complex 1, sigma subunit)",1,1.38e5,2.08e5,2.17e5,2.34e5,12985,inactive
CG8460,1,1.62e5,1.78e5,2.01e5,1.94e5,17135,inactive
CG31681,1,92905,87430,1.24e5,1.10e5,6745,inactive
CG4712,1,1.18e5,1.04e5,1.42e5,1.13e5,9055,inactive
rpr (reaper),1,1.73e5,1.79e5,2.03e5,1.94e5,7705,inactive
CCT3 (Chaperonin containing TCP1 subunit 3),1,1.91e5,1.79e5,2.29e5,2.32e5,14815,inactive
CLS (Cardiolipin synthase),1,1.75e5,1.67e5,2.29e5,2.06e5,14585,inactive
CG14423,1,1.36e5,1.12e5,2.37e5,1.86e5,9435,inactive
ApepP (Aminopeptidase P),1,3.07e5,2.88e5,3.36e5,3.21e5,22070,inactive
CG7140,1,2.21e5,1.42e5,1.74e5,1.59e5,13235,inactive
Smg5 (Smg5 nonsense mediated mRNA decay factor),1,2.21e5,2.46e5,2.70e5,3.11e5,17045,inactive
Octbeta3R (Octopamine beta3 receptor),1,1.08e5,87125,99680,66665,10775,inactive
Octbeta3R (Octopamine beta3 receptor),2,49210,46025,60005,35245,4045,inactive
Octbeta3R (Octopamine beta3 receptor),3,,,,,,inactive
Pi4KIIIalpha (Phosphatidylinositol 4-kinase III alpha),1,1.33e5,1.42e5,1.94e5,2.16e5,10085,inactive
CG5194,1,1.46e5,1.51e5,84195,37660,11795,inactive
thoc6,1,1.29e5,94670,66635,34440,8938,inactive
CG7406,1,76615,84285,1.32e5,1.30e5,9915,inactive
CG34459,1,1.26e5,1.10e5,1.30e5,1.56e5,10675,inactive
